Sequences of proteins named here, by UniProt entry; tags and fusion partners are left off.
UniProt P90623: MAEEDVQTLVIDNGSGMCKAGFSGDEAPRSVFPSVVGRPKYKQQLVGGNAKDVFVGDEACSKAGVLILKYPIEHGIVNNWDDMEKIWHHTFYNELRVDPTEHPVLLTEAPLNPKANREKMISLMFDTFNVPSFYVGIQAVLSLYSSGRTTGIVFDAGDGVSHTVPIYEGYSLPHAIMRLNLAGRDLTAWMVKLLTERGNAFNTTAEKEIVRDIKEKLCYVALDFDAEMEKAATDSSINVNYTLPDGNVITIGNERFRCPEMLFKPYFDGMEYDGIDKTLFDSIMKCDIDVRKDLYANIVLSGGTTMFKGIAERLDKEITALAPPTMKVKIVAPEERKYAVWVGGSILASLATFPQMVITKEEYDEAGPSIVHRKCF

According to publication PMC10434240:

B1: Ribosomal protein S3Ae, putative (protein, UniProt A2DSV0 1-247)
chain: MGASKQQRPKTSKKIKQDSFIKKEWRHVLVPAYFTGKRDIGVTVSNKCARGRVPMDYVNNRVWELSHADMVNDLSHAYRLFSWRSIAAGSEVYTQFAGMRLTHDKLDSIMRKYRTMIDASVDAKTADGFILRLFTIGFTKKLANSHKNHTYANSHKARQVRDVMIKALTDACEANGVEQLCKDFVDEKIENEIVDKCKQICQIESVYITKVKVIKAPALSNEQVKTLKISKDAAQLSLAPTERPTEE
B2: V-ATPase_H_C domain-containing protein (protein, UniProt A2FS41 1-433)
chain: MQRSKHPLFVRLEQRDAIFRDGNPASLSLESENAEDCKAFVSLFQASPENQLTEFVKNKNHAEIFTKLLSTRSDPAPLNLLCAFIDRLLDLDFNATIGALMANSQKLSEGCAKILIGHTADHLNQAFLVRTILLLLGTIISERDTKATTEAFQTFTRTALSLLSAKLNEASIALECVKRALRSEQFRSTFISEKGTKLLLDLLTQAQKASNTDSLYHILFCIWGISFSAEGAGQLSEGDFIPILTKLLSTVQPEREELVRLLTFIIQQLNPSIVFIENAYDYDILRLVRNLQTKHYVDPELTTEIAKVADDMAQALKKLSLWDKYVREVKSGKLKNTISHSSELFWKANVERFGENNFAVLIALRDLLKSDDEETVTVACHDIGEYVHRHPLGRIKVEEIHAKEMIMELLINKNQNIVSQALRTTQLLLLRNN
B3: H^+-transporting two-sector ATPase (protein, UniProt A2ED49 1-610)
chain: MFTTKEANKQEQLRGQVYSVSGPVVVAENMTGAAMYELVKVGSDNLVGEIIQLEHDTATIQVYEETSGLTVGDSVIGTGKPLSVLLAPGLMTNIYDGIQRPLKDISDQSHSVFIPRGVSCDPIDLKKEWSFKPANFKEGDNVTGGDIIGYVNETSMIEHRIMLPPKACGKVKYIAEAGSYDVLHPVIGVEFDGKVTEYPILQEWPVRTPRPYAEKLVADFPLITGQRVLDCLFPVVQGGTCAIPGAFGCGKTVISQALSKYSNSDAIIYVGCGERGNEMAEVLMEFPELKVEIQGVEHPIMDRTTLVANTSNMPVAAREASIYTGITLAEYYRDMGYNVTMLADSTSRWAEALREISGRLAQMPADSGYPAYLGTRLASFYERAGRVSCYGNPHRSGSVSIVGAVSPPGGDLAGDPVTSATLQVVQVFWGLDKKLAQRKHFPSVSWTLSYSKYDDILRPYFVQFDPDFPNLRTEVRQILQEEQELSEIVQLVGKDSLAEPDKLTLEVARMVRDDFLQQNSYTPYDRVSPMWKTFWMLKNMMHFNDLARHILTESGEKRVTYEAIANHMSAEIQGLIRMKFTDPADGKEQCIENLRKLYQQIEDKFRTFSD
B4: Histone H2A (protein, UniProt A2DHC5 1-139)
chain: MPAKKGVKKTATKTAVDGERQHPKTRSSRAGLQFPVGRLHRFLREGRYGERVGAGAPVFMAAVLEYLTVEVLELAGNAARDNKKTRISPRHIMLAVRNDEELNQLLSNITIASAGVVPHIHKVLLGNPKKGKDASQTQE
B5: Uncharacterized protein (TVAG_098000) (protein, UniProt A2E2D0 1-1315)
chain: MISSYGTVLFQKTIDVLVSQRVTDKQPFIESILQSPTVDEYILKIYERSNSLVDQVQGEKLFLLALLLTSKHYPESAEKATEYLNQIAKYTRILSNYDDYQLYNEVFFELVTKANPNDTEITKHQLTLATLSTKTQQYCGDAVKLAYVEYPQTRESVHALAMAIENLDLNPEGGLESELKAIMQHLTNPEELLADVNKFLHSETQVDVALELIHNLLEKVDAETKVAIFKKVTPELPYKFSSCSPRTLMYIAKILNLMPIPEEYNELDKFNIAVQLSFAAPNLSGAITSFDDPLVPMLIEFTQKRKDAPTFEIVVKSLAPYGVIIYAVNFGIFASYPDEVKNALKEPKFIIEAIHYLLKNNAVTDDTIQIVAEAYINALKSDILNDEEQLKKCVEILPQLNQFHAILLKLFLENCAYINNAIVVRKFCEFLIKSELAASEQFPLETIGTLARYLIIDEEDTQTTATVSKFLGILANMESIPCPTTANNIATYYCSEGDRMAQYQAYLLKQAIAFPNTGYEALAAGTPKLTDKNTTILTKNIENSYANQRLYSQYFISLSRNNVTQALEQFKVAVNDVVPALIQFTKPPPPKEFYDAAFFTILWLVQNVVKEEKDIKLLFAITRIAIPGPAMTDQCADSVIKTLKALITLNKGSIPDNVVKKILDSSFPEFIPIMFAAIGKERIDDAIITIIQHAMTKPFGYNYSEQLQAILNAGKKAKVLERFFQRFARLADRNDCIKLLELMAEVAKVARHLSIPYTSTKNDHEWIEIIIPYSIHVDEKIRGYALTILKNVYEVGCSVETSGLAHSEITTIVHTLWSEIVKRLDRDCILRVFKFCAKNLDKSEAASIFAAAVIDHRPDCIDEKDFDALFLLEANTFMFNNIFESLKKYSEDNKRRVVAKMFAIGYRPMTLSVFRAMIKEPDFVKAIFIEITAQQNHDKFLEIVEAFYETSEFDPVIFLIVLSFYSVQKQTRRKVKGLQSLMSSVLSQQIIKSTIINPQNLAIEDDLHLALKDIAFKTYNLSVDQLKAIAENAEAYVKSGEDMTSMTFGTLFAILAAQFAVLKTNQDLCLTFYKLFIMSIENATTHTAGFILAAFNQVTQEDIIEQISHEYKQSIIVHAAAALAETALSEKHIDDNLSLMCCVFSKFDEKAEVAEKVYVALDAASNKIAHRKDMMEALLTICHLQKVKFTEKGIARPAAILLRCFSERKDIAEIAYNILKEITEKETVEEVIFGTCENIERLPNVANNCVLSCTVPMITERTIEILHALAKFQTRIYSKAAGFYENLYPIAFKVIEEGDAELVDKATCLLKSFEK
B6: HTH Myb-type domain-containing protein (protein, UniProt A2ELI6 1-98)
chain: MEYGSKWTYIANFFPGRTDINLKNRWQKFKNQTTVVKSQEDNILRKENDYGVKAQEENKMRDGSVAALVNPQESEICFYEWLNSPEGAEEFFISNVSK
B7: DEAD/DEAH box helicase family protein (protein, UniProt A2D755 1-1123)
chain: MRPSNENQQNSNNSSNFQDGWQGNANYQQNSRMNPDNQDNQNYSQGSRFQNYSSRGESPATFSRNFPANSNYENSGDNQGFQPPSRNGSGFGNTANGSDRNTPINTNSGQSGWNQNFDQNPPNQNDFRSDQDRNSSNYTPNGNLNSNFGDNMNPNADQNQNGPQNDSNQWNSNRNTNSNDNWNENRNQSQNWNDQRGYNDDMNQNRNSNWNGNDNWNSNDNFRNDNPNGNGNRGWNDDRSGNWVGNDNWNGNQQNYDNQNGDWNRNGNWNDRNGNWNRNDDQGNYNRWDDRGNQNWNDRNWNQNGNWDQNRDNWNGNGPNGNWNRNDQWDDRNGNWNRSDRWNGNNDNWNGNQNRNYNDWNGNSNNGWNDNSNSNGNWNDNGNWNQNRNGFDNDNGNWNGNGNGNWNGNQNRNWNDNGNGNWNDNGNGRNDWNDNGNGNMNGNQNGNWNDNSNGNWNGNDNGNDRNGWNDNGNGKGNWNDNGNGDRNRDFNGNMNGNNWNDNGNGNWNDNSNRNWNDNGNGGWNRNSNDNMNGNNWDNNGNGNWNGNGNGNWNDNGNGNWNGNDNGNWNGNGNGNWNDNGNGNWNGNGNGNWNDNGNGNWNDNGNGNMNGNNWDNNGNDNWNQNGNGNNWNDDGNGNFGPPDNDDMMGNDYNGNGNGNMNGNDNGNMSFGGSSNSMKIDRDMNAKLCQLAEQIMNLPVEDPVPDIAHMNISMPEVSPEEFKDFTETYNIKLISDNPGPQTLFEFSPNFLDENTLSNIKKLEYTQPTDIQKIAIPIAYAGRDLIGIAKTGSGKTASYIIPAIKHVMLQNGREGPHVLIIAPTKELAQQIEIKANQLLENSPIKAVAIYASPNRREQINAVKKADIVIATFGRLLDFMSSNFVKLNGIGMVVIDEADNILKNDNQQQLGAILKHVPIDSQYLMWSASWIDEVRDLAEQYLKNYIKIVVDAFELTVNKDIKQIIIRKEGNPIIQVEEIIKKILADSKSDRIKILIFVNTSDKIDKTCDILNMEKVIKCMPIYSRLPPEERNATMKKFAEMKEPCALISTNLMSRGVELDVNYVIQMEIKDQFNEYVNRIGRTGRAGATGVAISLYDDNKNSAIRSDLIEYLKRAEQDVPDFLSSDY
B8: Actin-like protein 3, putative (protein, UniProt A2E0V9 1-420)
chain: MSTPTTPPVIIDVGTGYTKMGYANNTRPNFIIPTLHAGRDLSKVTAAQMVGTEDLDFYIGEEGIGKTPTYNPINIMKHGQVDDWTKMEQFWEQCLFKYLRCEPEDHAILLTEPPLNSPDNREYTAEVMFETFNVPYLYIGMQAMLAIAASWTNKSAHTLTGCVVDSGDGVTHVIPVVEGYPISNAIVHVPVAGREMTQFIADFLKDREPQVPAEDRMEAARNIKERYCRVAKHPSATFAMFDADRAKYIETYTGISSKSGKPYTCEVGYERFLAPEVWFSPELVSNEYTTPISVLIDRAIQMSPITDRKKLYNNIVLSGGSTTYKGLAKRLQADVQALVDARLEDNARRASKASGTKVEANKIPVNIVEHKRQQYAVWYGGAMLASTGSAFYAKCHSKAMYDEYGPSIARASTMFGASAV
B9: Coronin (protein, UniProt A2EIJ3 1-436)
chain: MTASPYRHVYAEVAKVDKSYQEVNISTTSVDTNLLAANYRYVAYPVETSGGGLFAVLPANGYGKVGTTNSVFRGHTGGVLDVDFNPFNDNIIASAAEDATLRVWQIKFNGTDVEKQNESLAVMKGHSRRVQRLTWNPAVNGAIATFGAENSVKVWDVAKAQCACTFKPGKDSLLDINWNQNGNLLCYPMKDKKLHVLDIRANTETFAVPSHPGLRGGRAVFYDKLNMVATTGFSASSGRQVAVRDIRNPEKPLAQLDIDSNNGILAPFVDEDLGVLILFSRGDALIRFYDLQSAENPLVQCNSFQNKEAVRAFARAPKYCVDTNVCEIDRFYVINQAKQLQTTQVIIPRKNAEIFQDDIYPETMKPVPGVEFDDWKGGKEPTFQKFSLENGYTPADGPAFSVTAAPEETFESLKAENTKLKARVAELEAEIAKLKK

The binders below were run against HA-TvActin (Trichomonas vaginalis) (UniProt P90623) (assay: affinity purification with mass spectrometry; HA-TvActin immunoprecipitated with anti-HA agarose beads from lysate of transgenic TH17 trophozoites (1% Triton X-100, 5 mM EDTA in TBS, 4°C overnight); SDS-PAGE, LC-MS/MS, label-free emPAI).
B1 was tested, and the binding was “binds”. With B2 the binding was “binds”. With B3 the binding was “binds”. With B4 the binding was “binds”. B5 was tested, and the binding was “binds”. B6 was tested, and the binding was “binds”. B7 was tested, and the binding was “binds”. In the case of B8, the binding is reported as “binds”. In the case of B9, the binding is reported as “binds”.

These are yes or no findings as the source states them, for the method shown. In cells and extracts the contact can be indirect. These calls come from enrichment with a bait or labelling near it, and not all partners need be listed. Sequences can lack the tags named with a protein.
